Results from article PMC4412883 (FEBS Open Bio, 2015).

Experiments:
[1] = molecular target: GlcPSe (Staphylococcus epidermidis, UniProt A0A0H2VG78, N136A); experiment: biochemical
[2] = molecular target: GlcPSe (Staphylococcus epidermidis, UniProt A0A0H2VG78); experiment: biochemical
[3] = molecular target: GlcPSe (Staphylococcus epidermidis, UniProt A0A0H2VG78, R367A); experiment: cell-based

Cc1cc2c(s1)Nc1ccccc1N=C2N1CCN(C)CC1 [olanzapine] gave an IC50 [1] of 1500 ± 200 µM, an IC50 [2] of 900 ± 100 µM and an IC50 [3] of 800 ± 100 µM.
